# According to patent US9643930B2, “Substituted indazole derivatives as in vitro MAO-B inhibitors” (“NTZ LAB” LTD., priority 2013, dated 2017):
# Some of these results come from one statement about several compounds together.
# Biological target: T1, rat MAO-B (Rattus norvegicus, UniProt P19643)
# T1 construct: from tissue; host or cells: rat liver mitochondria (male Sprague-Dawley rats)
# T1 sequence (P19643 1-520): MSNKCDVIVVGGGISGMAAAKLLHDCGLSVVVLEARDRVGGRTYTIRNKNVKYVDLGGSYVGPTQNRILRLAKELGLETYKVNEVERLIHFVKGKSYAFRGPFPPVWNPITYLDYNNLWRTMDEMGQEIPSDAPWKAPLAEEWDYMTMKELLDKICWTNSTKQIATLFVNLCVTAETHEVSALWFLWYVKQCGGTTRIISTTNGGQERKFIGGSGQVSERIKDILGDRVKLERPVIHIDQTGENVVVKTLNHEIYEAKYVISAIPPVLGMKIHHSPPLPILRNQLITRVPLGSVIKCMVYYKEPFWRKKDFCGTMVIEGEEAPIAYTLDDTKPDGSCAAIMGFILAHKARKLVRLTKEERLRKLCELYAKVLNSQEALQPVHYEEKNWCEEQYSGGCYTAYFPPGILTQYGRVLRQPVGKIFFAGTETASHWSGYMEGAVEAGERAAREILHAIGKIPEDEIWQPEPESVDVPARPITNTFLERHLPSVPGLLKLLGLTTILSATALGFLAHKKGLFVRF
# Test: Rat MAO-B assay (Amplex Red fluorescence, rat liver mitochondria pre-treated with clorgyline 30 nM)
# Assay type: biochemical
row,Compound,rat MAO-B (rat liver mitochondria) IC50 (nM)
1,"O=C(Nc1ccc(Cl)c(F)c1)c1ccc2[nH]ncc2c1 [Example 10, N-(4-chloro-3-fluorophenyl)-1H-indazole-5-carboxamide]",subnanomolar range
2,"Fc1cc(/N=C/c2ccc3[nH]ncc3c2)ccc1Cl [Example 23, (E)-N-((1H-indazol-5-yl)methylene)-4-chloro-3-fluoroaniline]",subnanomolar range
3,"Fc1ccc(/N=C/c2ccc3[nH]ncc3c2)cc1Cl [Example 24, (E)-N-((1H-indazol-5-yl)methylene)-3-chloro-4-fluoroaniline]",subnanomolar range
4,"Clc1cc(/N=C/c2ccc3[nH]ncc3c2)cnc1Cl [Example 25, (E)-N-((1H-indazol-5-yl)methylene)-5,6-dichloropyridin-3-amine]",subnanomolar range
5,"O=C(Nc1cnc(Cl)c(Cl)c1)c1ccc2[nH]ncc2c1 [Example 12, N-(5,6-dichloropyridin-3-yl)-1H-indazole-5-carboxamide]",subnanomolar range
6,"COCCn1ncc2cc(C(=O)Nc3ccc(Cl)c(Cl)c3)ccc21 [Example 21, N-(3,4-dichlorophenyl)-1-(2-methoxyethyl)-1H-indazole-5-carboxamide]",subnanomolar range
